Data published in paper PMC8124814.
These are yes or no findings as the source states them, for the method shown. Some entries that bind do so weakly or less than the wild type.

Target: X-ray repair cross-complementing protein 1 (XRCC1), human, unlabelled (human) (UniProt P18887)
Assay: cross-linking; glutaraldehyde; equimolar mixtures of the protein pairs; detailed in Supplementary Results; both purified

binding: binds
Substance: X-ray repair cross-complementing protein 1 (XRCC1), human, unlabelled (from UniProt P18887 1-633) (other; other documents disagree on this pair)
